No constants are given. Whether binding was seen depends on the method and setting. In cells and extracts the contact can be indirect. Some binding calls cover weakened binding; strength is not graded here. For part of these data: Tags and fused reporters may be left off the sequences shown.
Assays:
[1] = target: T1, myc-His-tagged flotillin-1 (pEF1/myc-His-Flot-1) (UniProt O75955); test: co-IP; 293T cells transfected with pEF1/myc-His-Flot-1 and pFLAG-CMV-Flot-2, lysed after 48 h; lysates pre-cleared, then incubated with agarose IgA/IgG beads with anti-His or anti-Flag overnight at 4 °C; immunoblot
T1 sequence: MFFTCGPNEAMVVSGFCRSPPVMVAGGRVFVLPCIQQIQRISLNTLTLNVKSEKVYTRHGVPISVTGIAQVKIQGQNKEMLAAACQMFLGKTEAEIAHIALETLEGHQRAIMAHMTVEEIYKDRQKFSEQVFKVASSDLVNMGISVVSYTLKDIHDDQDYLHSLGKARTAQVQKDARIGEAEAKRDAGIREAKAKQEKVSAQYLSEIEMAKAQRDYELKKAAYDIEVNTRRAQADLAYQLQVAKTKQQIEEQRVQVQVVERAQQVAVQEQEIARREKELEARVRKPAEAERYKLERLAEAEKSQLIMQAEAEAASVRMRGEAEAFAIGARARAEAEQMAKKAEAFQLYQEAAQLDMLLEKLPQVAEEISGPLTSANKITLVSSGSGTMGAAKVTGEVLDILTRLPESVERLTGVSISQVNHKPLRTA

[2] = target: T2, Flag-tagged flotillin-2 (pFLAG-CMV-Flot-2) (human (Flot-2 ORF amplified from 5-8F cell cDNA)) (UniProt Q14254); test: as above
T2 sequence: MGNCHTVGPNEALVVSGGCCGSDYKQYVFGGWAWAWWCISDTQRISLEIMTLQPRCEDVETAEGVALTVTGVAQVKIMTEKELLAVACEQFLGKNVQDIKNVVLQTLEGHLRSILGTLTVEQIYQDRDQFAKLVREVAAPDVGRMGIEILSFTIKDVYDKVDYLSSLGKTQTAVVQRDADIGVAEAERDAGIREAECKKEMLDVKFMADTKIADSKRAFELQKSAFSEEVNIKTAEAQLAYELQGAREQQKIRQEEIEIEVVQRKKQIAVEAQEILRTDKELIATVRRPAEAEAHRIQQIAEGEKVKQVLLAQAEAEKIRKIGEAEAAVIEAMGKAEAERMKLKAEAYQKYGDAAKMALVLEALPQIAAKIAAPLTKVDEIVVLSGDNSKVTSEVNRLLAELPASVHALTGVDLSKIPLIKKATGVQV

[3] = target: T3, flotillin-1, endogenous in 5-8F cells (human (endogenous in 5-8F)) (UniProt O75955); test: co-IP; endogenous proteins in 5-8F cell lysate; immunoprecipitated with anti-Flot-1 on agarose IgA/IgG beads, immunoblot for Flot-2
T3 sequence: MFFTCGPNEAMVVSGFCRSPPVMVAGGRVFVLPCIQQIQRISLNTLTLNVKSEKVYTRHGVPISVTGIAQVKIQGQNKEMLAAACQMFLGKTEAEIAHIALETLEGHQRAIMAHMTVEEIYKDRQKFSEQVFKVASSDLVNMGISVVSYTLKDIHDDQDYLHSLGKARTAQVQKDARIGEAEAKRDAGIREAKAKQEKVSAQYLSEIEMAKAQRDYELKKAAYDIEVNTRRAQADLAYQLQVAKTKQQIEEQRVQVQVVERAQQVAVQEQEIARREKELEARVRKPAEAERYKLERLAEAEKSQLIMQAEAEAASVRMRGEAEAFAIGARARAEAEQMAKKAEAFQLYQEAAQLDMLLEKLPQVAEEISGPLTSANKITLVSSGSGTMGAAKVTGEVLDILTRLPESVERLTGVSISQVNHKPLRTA

B1: Flag-tagged flotillin-2 (pFLAG-CMV-Flot-2) (protein, UniProt Q14254 1-428)
chain: MGNCHTVGPNEALVVSGGCCGSDYKQYVFGGWAWAWWCISDTQRISLEIMTLQPRCEDVETAEGVALTVTGVAQVKIMTEKELLAVACEQFLGKNVQDIKNVVLQTLEGHLRSILGTLTVEQIYQDRDQFAKLVREVAAPDVGRMGIEILSFTIKDVYDKVDYLSSLGKTQTAVVQRDADIGVAEAERDAGIREAECKKEMLDVKFMADTKIADSKRAFELQKSAFSEEVNIKTAEAQLAYELQGAREQQKIRQEEIEIEVVQRKKQIAVEAQEILRTDKELIATVRRPAEAEAHRIQQIAEGEKVKQVLLAQAEAEKIRKIGEAEAAVIEAMGKAEAERMKLKAEAYQKYGDAAKMALVLEALPQIAAKIAAPLTKVDEIVVLSGDNSKVTSEVNRLLAELPASVHALTGVDLSKIPLIKKATGVQV
With B1 the binding [1] was “binds”.

B2: myc-His-tagged flotillin-1 (pEF1/myc-His-Flot-1) (protein, UniProt O75955 1-427)
chain: MFFTCGPNEAMVVSGFCRSPPVMVAGGRVFVLPCIQQIQRISLNTLTLNVKSEKVYTRHGVPISVTGIAQVKIQGQNKEMLAAACQMFLGKTEAEIAHIALETLEGHQRAIMAHMTVEEIYKDRQKFSEQVFKVASSDLVNMGISVVSYTLKDIHDDQDYLHSLGKARTAQVQKDARIGEAEAKRDAGIREAKAKQEKVSAQYLSEIEMAKAQRDYELKKAAYDIEVNTRRAQADLAYQLQVAKTKQQIEEQRVQVQVVERAQQVAVQEQEIARREKELEARVRKPAEAERYKLERLAEAEKSQLIMQAEAEAASVRMRGEAEAFAIGARARAEAEQMAKKAEAFQLYQEAAQLDMLLEKLPQVAEEISGPLTSANKITLVSSGSGTMGAAKVTGEVLDILTRLPESVERLTGVSISQVNHKPLRTA
For B2, the binding [2] was “binds”.

B3: flotillin-2, endogenous in 5-8F cells (protein, UniProt Q14254 1-428)
chain: MGNCHTVGPNEALVVSGGCCGSDYKQYVFGGWAWAWWCISDTQRISLEIMTLQPRCEDVETAEGVALTVTGVAQVKIMTEKELLAVACEQFLGKNVQDIKNVVLQTLEGHLRSILGTLTVEQIYQDRDQFAKLVREVAAPDVGRMGIEILSFTIKDVYDKVDYLSSLGKTQTAVVQRDADIGVAEAERDAGIREAECKKEMLDVKFMADTKIADSKRAFELQKSAFSEEVNIKTAEAQLAYELQGAREQQKIRQEEIEIEVVQRKKQIAVEAQEILRTDKELIATVRRPAEAEAHRIQQIAEGEKVKQVLLAQAEAEKIRKIGEAEAAVIEAMGKAEAERMKLKAEAYQKYGDAAKMALVLEALPQIAAKIAAPLTKVDEIVVLSGDNSKVTSEVNRLLAELPASVHALTGVDLSKIPLIKKATGVQV
B3 was tested, and the binding [3] was “binds”.
